“And” between values parts separate entries of the source, which are not always exact repeats. Equal entries are not always repeated. Some of the results follow. Single values are uncertain here, since repeats match poorly.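 HEK293T cells were given each compound shortly before transfection with a reporter in which red mCherry is followed by the SARS-CoV-2 frameshift element and then GFP in the −1 frame, so GFP appears only after frameshifting.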

The test relates to HEK293T. Kind of test: percent viability (nuclei count) relative to control; higher = more viable cells. The note with it: 10 µM; 24 h.

`COc1ccc(Cl)cc1C(=O)NCCc1ccc(S(=O)(=O)NC(=O)NC2CCCCC2)cc1` [Glyburide]: the percent viability worked out at 337%.

With `OB1OCc2cc(F)ccc21` [Tavaborole], the percent viability worked out at 303%.

Regarding `Cn1cc(C(=O)[C@@H]2CCc3[nH]cnc3C2)c2ccccc21` [ramosetron], the percent viability was 120%.

`c1ccc([C@H]2CN3CCSC3=N2)cc1` [Levamisole]: the percent viability was 212%.

Consider `CCCCCCCCCCC[C@@H](C[C@@H]1OC(=O)[C@H]1CCCCCC)OC(=O)[C@H](CC(C)C)NC=O` [orlistat], for which the percent viability was determined as 392%.

Regarding `CCN(CC)CCNC(=O)c1cc(Br)c(N)cc1OC` [Bromopride], the percent viability was found to be 214%.

For the compound `CC(C)c1cc(C(C)C)c(CC(=O)NS(=O)(=O)Oc2c(C(C)C)cccc2C(C)C)c(C(C)C)c1` [avasimibe], the percent viability is 45.5%.

With `CN(C)CC(c1ccc(O)cc1)C1(O)CCCCC1` (stereo not drawn), the percent viability is 63.3%.

Consider `CC(=O)Nc1ccc(S(=O)(=O)Nc2ccc([N+](=O)[O-])cc2)cc1` [sulfanitran], for which the percent viability came to 171%.

As to `Nc1ccc(C(=O)Oc2ccccc2)c(O)c1` [fenamisal], the percent viability was determined as 431%.

Regarding `CO[C@H]1C[C@@H]2CC[C@@H](C)[C@@](O)(O2)C(=O)C(=O)N2CCCC[C@H]2C(=O)O[C@H]([C@H](C)C[C@@H]2CC[C@@H](OC(=O)C(C)(CO)CO)[C@H](OC)C2)CC(=O)[C@H](C)/C=C(\C)[C@@H](O)[C@@H](OC)C(=O)[C@H](C)C[C@H](C)/C=C/C=C/C=C/1C` [Temsirolimus], the percent viability came to 196%.

With `CCS(=O)(=O)CCn1c([N+](=O)[O-])cnc1C` [tinidazole], the percent viability is 177% and 395%.

Consider `O=C(O)CN1CCN(CC(=O)O)CCN(CC(=O)O)CCN(CC(=O)O)CC1` [tetraxetan], for which the percent viability is 101%.

Values taken from the supplement of paper PMC8256030.
